Reference: PubChem BioAssay AID1347075 (National Center for Advancing Translational Sciences (NCATS), 2019)
In all, about 400,000 compounds went through this assay and about 5,500 (1.4%) were called active. The shares of active, inactive and inconclusive entries below differ from those in the screen. Calls follow the shape of the dose curve; as a rule, active = well fitted cell-killing curve with a large enough effect; inconclusive = small, poorly fitted or top-dose-only effect, or effect the other way; inactive = flat fitted curve, though single readings scatter. A potency beside an inconclusive call is a rough fit, not a confirmed value.

Assay: qHTS assay for MDR1-selective chemotherapeutics: Primary screen using the parental adenocarcinoma cell KB-3-1; also: nearly all actives have a fitted effect of over 60% in size
Details: KB-3-1 viability, CellTiter-Glo ATP luminescence, 72 h; activity change, negative = cytotoxic: at 46.1 µM (top of the series)
How it was run: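 Cytotoxicity in the drug-sensitive parental line KB-3-1 was scored as loss of CellTiter-Glo luminescence following 72 h incubation with compound. Values come from curve fitting of normalized concentration-response data.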
% is scaled to controls: 0 for no effect and ±100 for the full control effect; potency is read from the fitted curve at half-maximal effect.

Question: With O=C1NC(=O)C(=Cc2csc3ccccc23)C(=O)N1 as the molecule, how does the Potency read?
Answer: The Potency was “inactive”.

Question: With C[C@]12CCC(=O)C=C1C=CC1C2CC[C@@]2(C)C1CC[C@@H]2O (some centres not stated) as the molecule, how does the Potency read?
Answer: Its Potency is inconclusive: 6.51 µM [cytotoxic, partial curve, poor fit].

Question: For COc1cc(/C=C/[N+](=O)[O-])ccc1O, which Potency is on record?
Answer: Its Potency is inconclusive: 23.1 µM [cytotoxic, single point].

Question: Which activity change, negative = cytotoxic does the source give for COC(=O)C1=C(c2ccc(OC(F)(F)F)cc2)C[C@@H]2CC[C@H]1N2C(=O)N1CCCCC1 here?
Answer: Its activity change, negative = cytotoxic is inconclusive: 0%.

Question: For CN1C(=O)NC(=O)/C(=C\C=C\c2ccccc2[N+](=O)[O-])C1=O, which Potency is on record?
Answer: Its Potency is inconclusive: 25.9 µM [cytotoxic, single point].

Question: For CCCCCCC[n+]1ccc(-c2cc[n+](CCCCCCC)cc2)cc1, which Potency is on record?
Answer: The Potency was inconclusive: 29.1 µM [cytotoxic, single point].

Question: Which Potency does the source give for Cc1cc(OC(=O)N(C)C)nc(SCc2c(Cl)cccc2Cl)n1 here?
Answer: The Potency was inconclusive: 9.2 µM [cytotoxic, partial curve, poor fit].

Question: Which Potency does the source give for O=c1c2ccccc2nc(-c2ccoc2)n1-c1ccccc1Cl here?
Answer: Its Potency is inconclusive: 29.1 µM [cytotoxic, single point].

Question: With COCCCn1c(N)c(C(=O)Nc2ccccc2)c2nc3ccccc3nc21 as the molecule, how does the Potency read?
Answer: Its Potency is inconclusive: 29.1 µM [cytotoxic, single point].

Question: Which Potency does the source give for CC1=C(O)C(=O)C=C2C1=CC=C1C2(C)CCC2(C)C3CC(C)(C(=O)O)CCC3(C)CCC12C (configuration not stated) here?
Answer: The Potency was inconclusive: 6.51 µM [cytotoxic, full curve, poor fit].

Question: For C[C@]12CC[C@H]3[C@@H](CCC4=CC(=O)CC[C@@H]43)[C@@H]1CC[C@@H]2O, which Potency is on record?
Answer: Its Potency is active: 10.3 µM.

Question: For COC(=O)C1=C(c2cccc(OCc3ccccc3)c2)C[C@@H]2CC[C@H]1N2C(=O)NCCCc1ccccc1, which Potency is on record?
Answer: Its Potency is inconclusive: 32.6 µM [cytotoxic, single point].

Question: Which Potency does the source give for Oc1c(Br)cc(-c2ccccc2)cc1Br here?
Answer: Its Potency is “inactive”.

Question: For COC(=O)C1=C(c2cc3ccccc3o2)C[C@@H]2CC[C@H]1N2C(=O)N1CCC(C)CC1, which Potency is on record?
Answer: The Potency was inconclusive: 29.1 µM [cytotoxic, single point].

Question: Which activity change, negative = cytotoxic does the source give for CNC(=O)Oc1ccc(C(=O)N2c3ccccc3NC(=O)C2C)cc1 (configuration not stated) here?
Answer: The activity change, negative = cytotoxic was inconclusive: 0.237%.

Question: With CCC(=Nc1cccc(C(F)(F)F)c1)c1c(O)n(C)c(=O)n(C)c1=O as the molecule, how does the Potency read?
Answer: Its Potency is inconclusive: 32.6 µM [rising, partial curve, poor fit].

Question: With CC(C)C(NC(=O)C(C(C)C)N(C)C)C(=O)N(C)C(C(=O)N1CCCC1C(=O)N1CCCC1C(=O)NCc1ccccc1)C(C)C (configuration not stated) as the molecule, how does the Potency read?
Answer: Its Potency is inconclusive: 0.184 µM [cytotoxic, full curve, poor fit].

Question: With O=c1[nH]c2ccccc2n1C1CCN(C(c2ccnc3ccccc23)c2nnnn2-c2ccc3c(c2)OCCO3)CC1 (configuration not stated) as the molecule, how does the Potency read?
Answer: Its Potency is inconclusive: 29.1 µM [cytotoxic, single point].

Question: With CC(C)n1c(O)c(C2c3cc(Cl)ccc3Oc3[nH]c(=O)n(C(C)C)c(=O)c32)c(=O)[nH]c1=O (configuration not stated) as the molecule, how does the Potency read?
Answer: The Potency was active: 8.2 µM.

Question: For CCC(c1nnnn1-c1ccc(OC)cc1)N1CCC2(CC1)C(=O)NCN2c1ccccc1 (configuration not stated), which Potency is on record?
Answer: The Potency was “inactive”.

Question: Which Potency does the source give for COC(=O)[C@@]1(Sc2ccc(C)cc2)CC(=O)N(P(=O)(OC)OC)[C@@H]1c1ccccc1 here?
Answer: Its Potency is “inactive”.

Question: With CSCCC(c1nnnn1Cc1ccccc1)N1CCC2(CC1)C(=O)NCN2c1ccccc1 (configuration not stated) as the molecule, how does the Potency read?
Answer: Its Potency is “inactive”.

Question: For CCN(CC)P(=S)(c1c(C)nc2ccccn12)c1c(C)nc2ccccn12, which Potency is on record?
Answer: Its Potency is inconclusive: 29.1 µM [cytotoxic, single point].

Question: Which Potency does the source give for Cc1cc(S(=O)(=O)NCC(C)C)ccc1OCC(=O)N1CCN(Cc2ccccc2)CC1 here?
Answer: The Potency was “inactive”.

Question: For CC1OC(OC2C=C3CCC4C(CCC5(C)C(c6ccc(=O)oc6)CCC45O)C3(C)CC2)C(O)C(OC2OC(CO)C(O)C(O)C2O)C1O (configuration not stated), which Potency is on record?
Answer: The Potency was inconclusive: 0.0058 µM [cytotoxic, full curve, poor fit].

Question: For O=C1C=C2C=C[C@@H]3CC2(O1)[C@H]1CCCCN31, which Potency is on record?
Answer: The Potency was inconclusive: 20.6 µM [cytotoxic, single point].

Question: Which Potency does the source give for CCCCCCN=C(CC)c1c(O)n(CCCC)c(=O)[nH]c1=O here?
Answer: Its Potency is active: 18.4 µM.

Question: For CCc1ccc(N2C(=O)NC(=O)/C(=C\C=C\c3ccco3)C2=O)cc1, which Potency is on record?
Answer: The Potency was inconclusive: 20.6 µM [cytotoxic, single point].

Question: With CC12CCC3c4ccc(OC(=O)N(CCCl)CCCl)cc4CCC3C1CCC2O (configuration not stated) as the molecule, how does the Potency read?
Answer: The Potency was inconclusive: 6.51 µM [cytotoxic, partial curve, poor fit].

Question: With O=C(CCN1CCN(CCO)CC1)N1c2ccccc2Sc2ccc(C(F)(F)F)cc21 as the molecule, how does the Potency read?
Answer: The Potency was “inactive”.

Question: With Cc1cccc(N2C(=O)/C(=C/N3CCN(C(=O)c4ccco4)CC3)C(=O)NC2=S)c1 as the molecule, how does the Potency read?
Answer: The Potency was “inactive”.

Question: With COc1ccccc1/C=N/N=C(/N)N[N+](=O)[O-] as the molecule, how does the Potency read?
Answer: The Potency was inconclusive: 29.1 µM [rising, single point].

Question: With C/C(=N\Nc1ccccc1)c1c(O)n(Cc2ccccc2)c(=O)[nH]c1=O as the molecule, how does the Potency read?
Answer: The Potency was “inactive”.

Question: With CCC1=Nc2cc(C(=O)N3CCC4(CC3)OCCO4)ccc2Sc2ccc(Br)cc21 as the molecule, how does the Potency read?
Answer: Its Potency is inconclusive: 29.1 µM [cytotoxic, single point].

Question: With C=CCn1c(O)c(C(CC)=NCc2ccc3c(c2)OCO3)c(=O)[nH]c1=O as the molecule, how does the Potency read?
Answer: Its Potency is inconclusive: 20.6 µM [cytotoxic, single point].

Question: For O=C1NC(=O)C(=Cc2c(Cl)cccc2Cl)C(=O)N1, which Potency is on record?
Answer: Its Potency is inconclusive: 0.731 µM [cytotoxic, full curve].

Question: With Cc1cccc(N2CCC3(CC2)C(=O)NC(=O)NC3=O)c1 as the molecule, how does the Potency read?
Answer: The Potency was “inactive”.

Question: With c1ccc(-c2cc(-c3ccccc3)[n+](-c3ccccc3)c(-c3ccccc3)c2)cc1 as the molecule, how does the Potency read?
Answer: Its Potency is active: 4.61 µM.

Question: With CC(C)N(C(=O)CCl)c1ccccc1 as the molecule, how does the Potency read?
Answer: The Potency was inconclusive: 29.1 µM [cytotoxic, single point].

Question: For CCOP(=O)(OCC)OCC, which Potency is on record?
Answer: Its Potency is “inactive”.

Question: Which Potency does the source give for O=C(c1cccc2ccccc12)C1CCCN(C2CCC2)C1 (configuration not stated) here?
Answer: Its Potency is “inactive”.

Question: Which Potency does the source give for Cc1cccc(NP(=O)(Oc2ccccc2F)Oc2ccccc2F)c1 here?
Answer: The Potency was inconclusive: 18.4 µM [cytotoxic, single point].

Question: Which Potency does the source give for c1cc2n(c1)-c1c(ccc3c1OCO3)CNC2c1ccc2c(c1)OCO2 (configuration not stated) here?
Answer: The Potency was inconclusive: 29.1 µM [cytotoxic, single point].

Question: With CCC(=Nc1cc(OC)ccc1OC)c1c(O)[nH]c(=O)[nH]c1=O as the molecule, how does the Potency read?
Answer: Its Potency is active: 5.8 µM.

Question: Which Potency does the source give for Nc1ccccc1C(=O)OCC(=O)N1CCc2ccccc21 here?
Answer: The Potency was “inactive”.

Question: With O=S(=O)(c1ccccc1)C1CN1c1c(F)c(F)c(F)c(F)c1F (configuration not stated) as the molecule, how does the Potency read?
Answer: Its Potency is “inactive”.

Question: For O=C(Nc1ccc2c(c1)OCCO2)c1cccn(Cc2cccc(F)c2)c1=O, which Potency is on record?
Answer: The Potency was “inactive”.

Question: With COC(=O)C1=C(c2ccc(-c3ccccc3)c(F)c2)C[C@@H]2CC[C@H]1N2C(=O)NCc1ccc(F)cc1 as the molecule, how does the Potency read?
Answer: The Potency was inconclusive: 25.9 µM [cytotoxic, single point].

Question: For CCC(=O)c1ccc(OC)c(OC)c1, which Potency is on record?
Answer: The Potency was inconclusive: 0.0082 µM [rising, full curve].

Question: For Cc1nonc1OCCNc1ccc([N+](=O)[O-])c2cccnc12, which Potency is on record?
Answer: The Potency was “inactive”.

Question: Which Potency does the source give for CN1CN(c2cccc([N+](=O)[O-])c2)CN=C1N[N+](=O)[O-] here?
Answer: The Potency was “inactive”.

Question: Which Potency does the source give for CC[C@H](C)[C@@H]1NC(=O)CNC(=O)c2csc(n2)[C@H](C(C)(C)O)OC(=O)C(C)(C)[C@H](CCCC(C)(Cl)Cl)OC(=O)c2csc1n2 here?
Answer: The Potency was active: 0.461 µM.

Question: With COC(=O)C1=C(c2ccc(F)cc2OCc2ccccc2)C[C@@H]2CC[C@H]1N2C(=O)NCc1ccc(Cl)cc1 as the molecule, how does the Potency read?
Answer: The Potency was inconclusive: 29.1 µM [cytotoxic, single point].

Question: Which Potency does the source give for CC(C)Oc1cccc(NC(=O)c2cccn(Cc3ccc4c(c3)OC(F)(F)O4)c2=O)c1 here?
Answer: The Potency was inconclusive: 29.1 µM [cytotoxic, single point].

Question: For O=[N+]([O-])c1ccccc1-c1cc(-c2ccccc2)cc(-c2ccccc2)[n+]1Cc1ccccc1Cl, which Potency is on record?
Answer: The Potency was active: 9.2 µM.

Question: Which Potency does the source give for Nc1c(C(=O)OC2CCCCC2)c2nc3ccccc3nc2n1CC1CCCO1 (configuration not stated) here?
Answer: Its Potency is inconclusive: 29.1 µM [cytotoxic, single point].

Question: For CCCCCn1c(N)c(C(=O)NCc2cccs2)c2nc3ccccc3nc21, which Potency is on record?
Answer: Its Potency is inconclusive: 23.1 µM [cytotoxic, single point].

Question: With C[C@H]1C[C@@H](C)C(=O)[C@@H]([C@H](O)CC2CC(=O)NC(=O)C2)C1 as the molecule, how does the Potency read?
Answer: Its Potency is active: 3.26 µM.

Question: For O=c1c2ccccc2nc(/C=C/c2ccc(F)cc2)n1-c1ccccc1O, which Potency is on record?
Answer: The Potency was inconclusive: 29.1 µM [cytotoxic, single point].

Question: Which Potency does the source give for CCCOC(=O)C1C2CCC(O2)C1C(=O)O (configuration not stated) here?
Answer: Its Potency is inconclusive: 25.9 µM [cytotoxic, partial curve, poor fit].

Question: For C[C@]12CC[C@H]3[C@@H](CC[C@]4(O)C[C@@H](O)CC[C@]34C=O)[C@@]1(O)CC[C@@H]2C1=CC(=O)OC1, which Potency is on record?
Answer: The Potency was active: 0.517 µM.

Question: For N=C1c2ccccc2CN1CC(=O)c1ccccc1, which Potency is on record?
Answer: The Potency was inconclusive: 29.1 µM [cytotoxic, single point].

Question: Which Potency does the source give for C=C1[C@H]2CC[C@H]3[C@]4(C)C[C@H](O[C@H]5O[C@H](CO)[C@@H](OS(=O)(=O)O)[C@H](OS(=O)(=O)O)[C@H]5OC(=O)CC(C)C)C[C@@H](C(=O)O)[C@H]4CC[C@]3(C2)[C@H]1O here?
Answer: The Potency was “inactive”.

Question: Which Potency does the source give for COC(=O)C1=C(c2ccc(-c3ccccc3)c(F)c2)C[C@@H]2CC[C@H]1N2C(=O)NCc1cc(C)oc1C(F)(F)F here?
Answer: Its Potency is inconclusive: 25.9 µM [cytotoxic, single point].

Question: For C#CCN(C)C(C)Cc1ccccc1 (configuration not stated), which Potency is on record?
Answer: The Potency was inconclusive: 23.1 µM [cytotoxic, single point].

Question: Which Potency does the source give for c1ccc2c(c1)Sc1ccccc1N2CC1CN2CCC1CC2 (configuration not stated) here?
Answer: Its Potency is “inactive”.

Question: With CCN(CC)CCCNC(=O)c1c(O)c2ccccc2n(Cc2ccccc2)c1=O as the molecule, how does the Potency read?
Answer: The Potency was inconclusive: 23.1 µM [cytotoxic, single point].
